Some of the results follow.
What was measured:
Test in all cases: log2 fold change, soluble protein after heating vs DMSO (PISA); higher = thermal stabilisation; K562 cells, 10 uM, 30 min; active = over 0.2 and 3.5 SD of the protein, either way, in both replicates (recomputed)
[1] = compound: CS(=O)(=O)c1ccc(-c2cnc(N)c(C(=O)Nc3ccccc3)n2)cc1
Outline: (§1)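 Thermal stability values are relative to control samples and come from duplicates. They are expressed as log2 fold changes. For measurement, K562 cells (2×10^6 cells/mL) received 10 μM compound for 30 min, and aliquots were heated for 3 min over 48°C-58°C, pooled, and extracted at 4°C in PBS with 0.5% NP-40. Soluble protein, the supernatant after 21,000xg for 90 min, was quantified by TMTpro 16plex LC-MS/MS with equalised channel sums.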

The chains behind the UniProt entries cited, without tags or fusion partners. Where a name states a change or a piece, a line headed by the entry shows the natural chain unless it says otherwise.
UniProt Q9UJX5, whole entry, looked up: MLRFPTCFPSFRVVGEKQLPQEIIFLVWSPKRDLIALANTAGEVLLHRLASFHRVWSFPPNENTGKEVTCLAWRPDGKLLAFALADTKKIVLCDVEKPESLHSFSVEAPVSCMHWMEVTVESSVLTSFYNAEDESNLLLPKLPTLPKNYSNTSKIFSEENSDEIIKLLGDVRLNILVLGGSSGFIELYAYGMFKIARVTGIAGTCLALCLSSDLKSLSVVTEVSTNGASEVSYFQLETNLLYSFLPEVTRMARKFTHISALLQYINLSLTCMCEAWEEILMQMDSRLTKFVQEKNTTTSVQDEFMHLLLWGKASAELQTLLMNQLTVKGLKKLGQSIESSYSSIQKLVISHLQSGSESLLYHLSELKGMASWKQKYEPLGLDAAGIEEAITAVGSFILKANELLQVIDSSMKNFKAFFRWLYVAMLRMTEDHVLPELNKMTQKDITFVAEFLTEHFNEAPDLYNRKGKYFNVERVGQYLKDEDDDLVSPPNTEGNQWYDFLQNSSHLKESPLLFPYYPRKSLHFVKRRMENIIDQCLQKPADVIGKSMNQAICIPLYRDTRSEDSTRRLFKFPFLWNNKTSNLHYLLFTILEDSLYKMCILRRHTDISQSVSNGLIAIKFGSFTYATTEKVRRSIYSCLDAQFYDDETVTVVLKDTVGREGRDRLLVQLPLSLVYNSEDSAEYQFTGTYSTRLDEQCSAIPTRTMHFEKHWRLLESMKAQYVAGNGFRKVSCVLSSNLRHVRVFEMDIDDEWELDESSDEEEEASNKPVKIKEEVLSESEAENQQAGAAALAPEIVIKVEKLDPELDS
UniProt P62330: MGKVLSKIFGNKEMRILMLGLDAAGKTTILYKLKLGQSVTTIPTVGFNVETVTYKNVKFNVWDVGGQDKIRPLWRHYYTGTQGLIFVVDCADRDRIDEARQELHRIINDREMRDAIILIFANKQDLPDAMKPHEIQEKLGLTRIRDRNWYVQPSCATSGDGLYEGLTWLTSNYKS
UniProt O60306: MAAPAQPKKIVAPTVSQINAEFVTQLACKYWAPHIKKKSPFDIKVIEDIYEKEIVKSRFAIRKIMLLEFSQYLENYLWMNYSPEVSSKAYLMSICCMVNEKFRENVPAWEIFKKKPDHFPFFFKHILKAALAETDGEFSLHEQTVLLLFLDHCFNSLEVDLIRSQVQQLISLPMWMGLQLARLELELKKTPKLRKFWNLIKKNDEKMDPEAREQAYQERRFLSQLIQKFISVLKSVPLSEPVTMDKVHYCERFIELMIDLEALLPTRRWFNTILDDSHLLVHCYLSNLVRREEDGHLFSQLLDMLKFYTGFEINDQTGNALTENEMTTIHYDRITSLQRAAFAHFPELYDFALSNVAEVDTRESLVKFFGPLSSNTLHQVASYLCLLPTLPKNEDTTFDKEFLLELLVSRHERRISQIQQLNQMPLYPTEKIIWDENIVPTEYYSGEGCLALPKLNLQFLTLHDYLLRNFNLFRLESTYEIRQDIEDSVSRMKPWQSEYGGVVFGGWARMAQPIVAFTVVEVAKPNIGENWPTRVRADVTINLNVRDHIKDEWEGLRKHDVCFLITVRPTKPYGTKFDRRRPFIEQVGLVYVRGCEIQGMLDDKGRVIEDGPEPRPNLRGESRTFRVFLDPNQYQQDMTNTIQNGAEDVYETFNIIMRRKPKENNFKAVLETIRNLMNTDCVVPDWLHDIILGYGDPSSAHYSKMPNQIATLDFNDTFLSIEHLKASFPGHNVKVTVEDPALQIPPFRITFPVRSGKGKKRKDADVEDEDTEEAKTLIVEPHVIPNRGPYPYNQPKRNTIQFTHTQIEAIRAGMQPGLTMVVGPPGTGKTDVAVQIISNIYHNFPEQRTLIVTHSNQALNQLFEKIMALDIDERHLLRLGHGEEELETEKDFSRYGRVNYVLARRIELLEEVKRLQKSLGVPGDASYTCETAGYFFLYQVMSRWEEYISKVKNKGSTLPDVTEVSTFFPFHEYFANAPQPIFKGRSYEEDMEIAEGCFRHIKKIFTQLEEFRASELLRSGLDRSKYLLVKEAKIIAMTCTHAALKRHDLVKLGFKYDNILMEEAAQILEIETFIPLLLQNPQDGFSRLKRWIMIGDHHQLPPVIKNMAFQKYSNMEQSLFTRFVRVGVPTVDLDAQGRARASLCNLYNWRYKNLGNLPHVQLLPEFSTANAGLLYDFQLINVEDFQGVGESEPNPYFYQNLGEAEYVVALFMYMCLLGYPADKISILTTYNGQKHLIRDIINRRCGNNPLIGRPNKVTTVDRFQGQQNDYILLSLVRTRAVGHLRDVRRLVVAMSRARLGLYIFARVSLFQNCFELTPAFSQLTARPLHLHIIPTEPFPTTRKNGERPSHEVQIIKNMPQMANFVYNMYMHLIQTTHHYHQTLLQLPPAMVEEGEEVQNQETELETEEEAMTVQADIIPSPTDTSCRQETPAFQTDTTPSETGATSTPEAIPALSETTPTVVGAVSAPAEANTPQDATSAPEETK
UniProt Q9NRW3: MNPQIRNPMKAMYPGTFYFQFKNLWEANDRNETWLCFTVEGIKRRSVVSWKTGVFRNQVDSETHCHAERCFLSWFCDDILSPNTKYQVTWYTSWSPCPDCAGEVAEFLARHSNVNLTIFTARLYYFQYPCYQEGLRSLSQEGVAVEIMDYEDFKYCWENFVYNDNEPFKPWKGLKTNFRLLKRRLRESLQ
UniProt Q8IWW6: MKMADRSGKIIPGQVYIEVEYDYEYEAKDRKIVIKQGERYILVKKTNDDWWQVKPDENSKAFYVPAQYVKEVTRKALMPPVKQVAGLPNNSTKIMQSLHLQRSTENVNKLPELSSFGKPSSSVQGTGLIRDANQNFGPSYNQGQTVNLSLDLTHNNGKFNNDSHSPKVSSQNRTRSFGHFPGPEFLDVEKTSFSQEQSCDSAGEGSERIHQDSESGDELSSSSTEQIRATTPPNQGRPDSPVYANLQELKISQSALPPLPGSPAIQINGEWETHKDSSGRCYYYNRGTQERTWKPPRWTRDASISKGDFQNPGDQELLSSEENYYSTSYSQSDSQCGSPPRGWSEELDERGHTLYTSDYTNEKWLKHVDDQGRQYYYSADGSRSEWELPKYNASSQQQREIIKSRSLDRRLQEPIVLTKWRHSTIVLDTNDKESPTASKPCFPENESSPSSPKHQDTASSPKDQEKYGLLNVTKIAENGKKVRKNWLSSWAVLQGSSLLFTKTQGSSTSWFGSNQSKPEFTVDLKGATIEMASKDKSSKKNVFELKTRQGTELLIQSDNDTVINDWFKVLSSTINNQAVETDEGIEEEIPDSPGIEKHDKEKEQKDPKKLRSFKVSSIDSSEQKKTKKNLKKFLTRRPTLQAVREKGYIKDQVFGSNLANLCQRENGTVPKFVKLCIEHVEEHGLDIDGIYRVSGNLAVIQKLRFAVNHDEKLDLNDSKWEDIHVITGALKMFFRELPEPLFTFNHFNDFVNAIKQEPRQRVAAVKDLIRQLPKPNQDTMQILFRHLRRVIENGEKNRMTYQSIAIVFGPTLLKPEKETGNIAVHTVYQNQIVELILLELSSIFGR
UniProt Q92688: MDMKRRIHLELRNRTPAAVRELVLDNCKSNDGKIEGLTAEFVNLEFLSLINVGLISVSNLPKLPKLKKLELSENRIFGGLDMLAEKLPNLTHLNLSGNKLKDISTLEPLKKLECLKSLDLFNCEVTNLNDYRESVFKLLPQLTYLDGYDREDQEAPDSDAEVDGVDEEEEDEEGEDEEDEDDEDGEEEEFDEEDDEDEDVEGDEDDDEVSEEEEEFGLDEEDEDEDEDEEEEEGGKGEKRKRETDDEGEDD
UniProt P08133: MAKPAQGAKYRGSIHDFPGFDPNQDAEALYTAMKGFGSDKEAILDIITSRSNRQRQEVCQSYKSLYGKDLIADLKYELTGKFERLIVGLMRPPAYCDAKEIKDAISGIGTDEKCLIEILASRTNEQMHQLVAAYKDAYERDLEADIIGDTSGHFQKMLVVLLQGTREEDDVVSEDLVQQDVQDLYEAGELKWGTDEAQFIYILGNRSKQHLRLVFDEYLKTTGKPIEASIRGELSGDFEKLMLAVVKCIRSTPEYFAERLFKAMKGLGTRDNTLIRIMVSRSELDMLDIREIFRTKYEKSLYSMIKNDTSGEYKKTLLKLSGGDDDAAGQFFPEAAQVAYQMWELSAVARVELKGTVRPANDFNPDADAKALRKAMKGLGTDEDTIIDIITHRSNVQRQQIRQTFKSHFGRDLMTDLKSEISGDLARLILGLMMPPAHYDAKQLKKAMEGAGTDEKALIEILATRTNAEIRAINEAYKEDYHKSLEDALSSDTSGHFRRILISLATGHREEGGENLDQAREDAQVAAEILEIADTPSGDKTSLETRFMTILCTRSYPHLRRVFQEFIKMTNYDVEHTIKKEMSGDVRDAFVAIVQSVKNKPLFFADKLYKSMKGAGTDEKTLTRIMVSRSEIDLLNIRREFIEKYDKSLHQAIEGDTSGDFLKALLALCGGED
UniProt P61204: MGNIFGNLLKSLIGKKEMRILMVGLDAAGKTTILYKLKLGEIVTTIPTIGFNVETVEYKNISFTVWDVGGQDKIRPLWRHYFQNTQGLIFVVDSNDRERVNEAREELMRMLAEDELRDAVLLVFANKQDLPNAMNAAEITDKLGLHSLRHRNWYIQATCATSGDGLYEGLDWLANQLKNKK
UniProt Q9UJX4, whole entry, looked up: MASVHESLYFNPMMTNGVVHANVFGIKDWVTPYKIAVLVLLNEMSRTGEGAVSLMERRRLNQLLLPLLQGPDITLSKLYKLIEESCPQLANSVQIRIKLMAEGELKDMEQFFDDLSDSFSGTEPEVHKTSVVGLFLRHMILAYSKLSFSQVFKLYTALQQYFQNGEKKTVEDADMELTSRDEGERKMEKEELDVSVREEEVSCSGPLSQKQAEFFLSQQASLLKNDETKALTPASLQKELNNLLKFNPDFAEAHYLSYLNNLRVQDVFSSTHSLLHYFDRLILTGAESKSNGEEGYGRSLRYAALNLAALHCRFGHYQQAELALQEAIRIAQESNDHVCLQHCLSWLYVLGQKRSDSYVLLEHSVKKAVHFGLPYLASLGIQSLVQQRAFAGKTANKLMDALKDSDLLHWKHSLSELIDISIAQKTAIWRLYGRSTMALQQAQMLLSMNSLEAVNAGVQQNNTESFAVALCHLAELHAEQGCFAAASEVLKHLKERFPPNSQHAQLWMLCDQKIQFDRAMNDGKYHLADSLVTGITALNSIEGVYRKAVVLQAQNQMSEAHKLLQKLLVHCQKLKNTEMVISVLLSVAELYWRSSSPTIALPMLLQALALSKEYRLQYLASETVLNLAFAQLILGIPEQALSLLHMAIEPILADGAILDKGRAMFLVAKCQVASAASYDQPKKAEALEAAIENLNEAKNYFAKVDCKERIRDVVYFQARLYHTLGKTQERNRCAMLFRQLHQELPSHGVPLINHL
UniProt Q0VD83: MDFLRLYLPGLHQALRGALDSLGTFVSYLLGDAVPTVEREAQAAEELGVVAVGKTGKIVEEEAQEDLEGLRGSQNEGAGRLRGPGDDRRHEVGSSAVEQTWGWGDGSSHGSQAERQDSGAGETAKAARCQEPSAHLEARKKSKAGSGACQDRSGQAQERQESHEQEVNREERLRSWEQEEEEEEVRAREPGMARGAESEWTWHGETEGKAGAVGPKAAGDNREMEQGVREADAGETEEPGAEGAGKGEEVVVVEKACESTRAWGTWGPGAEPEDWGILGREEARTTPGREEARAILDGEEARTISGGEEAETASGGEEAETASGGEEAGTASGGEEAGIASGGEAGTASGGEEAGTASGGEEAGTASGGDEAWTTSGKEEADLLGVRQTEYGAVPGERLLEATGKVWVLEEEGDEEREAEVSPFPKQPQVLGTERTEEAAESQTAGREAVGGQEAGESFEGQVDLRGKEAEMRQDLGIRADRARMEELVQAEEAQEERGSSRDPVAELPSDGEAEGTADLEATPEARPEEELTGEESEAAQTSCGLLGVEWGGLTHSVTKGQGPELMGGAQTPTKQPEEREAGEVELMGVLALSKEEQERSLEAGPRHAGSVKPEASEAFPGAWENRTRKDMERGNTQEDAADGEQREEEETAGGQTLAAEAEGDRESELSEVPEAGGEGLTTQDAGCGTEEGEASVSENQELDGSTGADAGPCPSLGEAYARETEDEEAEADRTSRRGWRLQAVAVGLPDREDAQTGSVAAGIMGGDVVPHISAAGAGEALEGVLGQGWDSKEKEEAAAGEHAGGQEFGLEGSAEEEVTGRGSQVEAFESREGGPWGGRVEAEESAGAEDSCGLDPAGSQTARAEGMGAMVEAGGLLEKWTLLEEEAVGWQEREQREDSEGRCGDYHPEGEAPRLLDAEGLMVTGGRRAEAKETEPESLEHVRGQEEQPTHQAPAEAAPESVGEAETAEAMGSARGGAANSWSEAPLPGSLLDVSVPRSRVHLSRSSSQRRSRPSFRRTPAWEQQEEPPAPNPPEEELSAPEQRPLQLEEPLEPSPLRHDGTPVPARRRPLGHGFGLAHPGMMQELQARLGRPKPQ

crizotinib = compound: C[C@@H](Oc1cc(-c2cnn(C3CCNCC3)c2)cnc1N)c1c(Cl)ccc(F)c1Cl [crizotinib]
Outline: as §1

[2] = compound: C[C@@H]1COCCN1C2=NC(=NC(=C2)C3(CC3)S(=O)(=O)C)C4=C5C=CNC5=CC=C4
Outline: as §1

[3] = compound: C[C@H](C1=CC=C(C=C1)C(=O)NC2=C3C=CNC3=NC=C2)N
Outline: as §1

duvelisib = compound: C[C@H](Nc1ncnc2nc[nH]c12)c1cc2cccc(Cl)c2c(=O)n1-c1ccccc1 [duvelisib]
Outline: as §1

gandotinib = compound: Cc1cc(Nc2cc(CN3CCOCC3)c3nc(C)c(Cc4ccc(Cl)cc4F)n3n2)n[nH]1 [gandotinib]
Outline: as §1

tozasertib = compound: Cc1cc(Nc2cc(N3CCN(C)CC3)nc(Sc3ccc(NC(=O)C4CC4)cc3)n2)n[nH]1 [tozasertib]
Outline: as §1

[4] = compound: Cc1cc(SCc2sc(-c3ccc(C(F)(F)F)cc3)nc2C)ccc1OCC(=O)O
Outline: as §1

doramapimod = compound: Cc1ccc(-n2nc(C(C)(C)C)cc2NC(=O)Nc2ccc(OCCN3CCOCC3)c3ccccc23)cc1 [doramapimod]
Outline: as §1

ispinesib = compound: Cc1ccc(C(=O)N(CCCN)[C@@H](c2nc3cc(Cl)ccc3c(=O)n2Cc2ccccc2)C(C)C)cc1 [ispinesib]
Outline: as §1

Measured: log2 fold change

APOM (UniProt O95445)
inactive: [1] -0.147 | crizotinib 0.146 | [2] 0.058 | [3] 0.177 | duvelisib -0.215 | gandotinib -0.109 | tozasertib -0.05 | [4] -0.114 | doramapimod 0.253 | ispinesib -0.048

ARHGDIA (UniProt P52565)
inactive: [1] 0.013 | crizotinib 0.05 | [2] 0.038 | [3] -0.117 | duvelisib 0.034 | gandotinib -0.065 | tozasertib -0.007 | [4] -0.018 | doramapimod 0.01 | ispinesib 0.062

ANTXR2 isoform 4 (UniProt P58335)
inactive: [1] 0.021 | crizotinib 0.017 | [2] 0.017 | [3] -0.04 | duvelisib 0.084 | gandotinib 0.038 | tozasertib -0.009 | [4] -0.026 | doramapimod -0.033 | ispinesib 0.035

ANAPC4 isoform 3 (UniProt Q9UJX5)
inactive: [1] 0.03 | crizotinib 0.014 | [2] -0.069 | [3] -0.067 | duvelisib -0.008 | gandotinib 0.039 | tozasertib 0.016 | [4] 0.015 | doramapimod 0.012 | ispinesib 0.016

APRT (UniProt P07741)
inactive: [1] 0.015 | crizotinib 0.083 | [2] 0.103 | [3] -0.043 | duvelisib 0.063 | gandotinib 0.022 | tozasertib -0.008 | [4] -0.012 | doramapimod -0.007 | ispinesib -0.017

ARF6 (UniProt P62330)
inactive: [1] 0.069 | crizotinib 0.034 | [2] 0.052 | [3] -0.065 | duvelisib 0.016 | gandotinib 0.04 | tozasertib -0.024 | [4] -0.054 | doramapimod -0.001 | ispinesib 0.126

AP1AR (UniProt Q63HQ0)
inactive: [1] -0.012 | crizotinib 0.022 | [2] -0.123 | [3] 0.109 | duvelisib -0.047 | gandotinib -0.211 | tozasertib -0.037 | [4] -0.097 | doramapimod 0.002 | ispinesib -0.109

APMAP (UniProt Q9HDC9)
inactive: [1] 0.026 | crizotinib 0.052 | [2] 0.019 | [3] -0.041 | duvelisib 0.019 | gandotinib -0.032 | tozasertib -0.018 | [4] -0.012 | doramapimod 0.013 | ispinesib 0

APOOL (UniProt Q6UXV4)
inactive: [1] 0.006 | crizotinib 0.058 | [2] 0.002 | [3] -0.015 | duvelisib 0.003 | gandotinib -0.035 | tozasertib 0.02 | [4] -0.053 | doramapimod -0.015 | ispinesib 0.017

2 consecutive records from above, quoted:
APOM (UniProt O95445)
inactive: [1] -0.147 | crizotinib 0.146 | [2] 0.058 | [3] 0.177 | duvelisib -0.215 | gandotinib -0.109 | tozasertib -0.05 | [4] -0.114 | doramapimod 0.253 | ispinesib -0.048

ARHGDIA (UniProt P52565)
inactive: [1] 0.013 | crizotinib 0.05 | [2] 0.038 | [3] -0.117 | duvelisib 0.034 | gandotinib -0.065 | tozasertib -0.007 | [4] -0.018 | doramapimod 0.01 | ispinesib 0.062

Next results.

AQR (UniProt O60306)
inactive: [1] 0.036 | crizotinib -0.183 | [2] -0.003 | [3] 0.258 | duvelisib -0.092 | gandotinib -0.006 | tozasertib -0.121 | [4] 0.114 | doramapimod 0.128 | ispinesib -0.116

AP4E1 (UniProt Q9UPM8)
inactive: [1] 0.037 | crizotinib -0.055 | [2] 0.011 | [3] 0.113 | duvelisib 0.224 | gandotinib -0.096 | tozasertib -0.021 | [4] 0.023 | doramapimod -0.014 | ispinesib -0.078

APOBEC3C (UniProt Q9NRW3)
inactive: [1] -0.009 | crizotinib -0.065 | [2] -0.233 | [3] 0.417 | duvelisib -0.162 | gandotinib 0.03 | tozasertib 0 | [4] -0.011 | doramapimod 0.245 | ispinesib -0.149

AP3D1 isoform 5 (UniProt O14617)
inactive: [1] 0.012 | crizotinib -0.077 | [2] -0.028 | [3] 0.036 | duvelisib -0.019 | gandotinib -0.002 | tozasertib -0.018 | [4] 0.024 | doramapimod 0.018 | ispinesib -0.05

ARHGAP12 (UniProt Q8IWW6)
inactive: [1] 0.075 | crizotinib 0.067 | [2] -0.057 | [3] 0.041 | duvelisib 0.02 | gandotinib -0.069 | tozasertib -0.01 | [4] 0.004 | doramapimod 0.029 | ispinesib -0.13

ANP32B (UniProt Q92688)
inactive: [1] 0.02 | crizotinib 0.123 | [2] 0.056 | [3] -0.044 | duvelisib 0.02 | gandotinib -0.054 | tozasertib 0.021 | [4] 0.016 | doramapimod -0.036 | ispinesib 0.054

APIP (UniProt Q96GX9)
inactive: [1] 0.042 | crizotinib 0.028 | [2] 0.009 | [3] -0.01 | duvelisib 0.037 | gandotinib -0.037 | tozasertib -0.061 | [4] -0.032 | doramapimod 0 | ispinesib -0.003

ANK3 (UniProt Q12955)
inactive: [1] 0.031 | crizotinib -0.198 | [2] -0.01 | [3] 0.245 | duvelisib 0.009 | gandotinib -0.081 | tozasertib 0.066 | [4] 0.035 | doramapimod 0.298 | ispinesib 0.046

AP1S1 (UniProt P61966)
inactive: [1] 0 | crizotinib -0.03 | [2] 0.034 | [3] 0.029 | duvelisib -0.028 | gandotinib -0.023 | tozasertib 0.095 | [4] 0.067 | doramapimod -0.033 | ispinesib -0.046

ARFIP2 (UniProt P53365)
inactive: [1] -0.035 | crizotinib -0.165 | [2] 0.007 | [3] -0.047 | duvelisib 0.065 | gandotinib -0.191 | tozasertib -0.145 | [4] -0.025 | doramapimod -0.043 | ispinesib -0.13

ANKRD49 (UniProt Q8WVL7)
inactive: [1] -0.017 | crizotinib 0.035 | [2] 0.075 | [3] -0.08 | duvelisib 0.012 | gandotinib -0.02 | tozasertib 0.012 | [4] 0.036 | doramapimod 0.028 | ispinesib 0.049

ARFGEF2 (UniProt Q9Y6D5)
inactive: [1] 0.028 | crizotinib -0.086 | [2] -0.013 | [3] 0.018 | duvelisib 0.018 | gandotinib -0.018 | tozasertib -0.028 | [4] 0.027 | doramapimod 0.045 | ispinesib -0.171

AP1G1 isoform 2 (UniProt O43747)
inactive: [1] -0.004 | crizotinib 0.012 | [2] 0.039 | [3] 0.026 | duvelisib 0.03 | gandotinib -0.013 | tozasertib 0.119 | [4] 0.101 | doramapimod -0.003 | ispinesib 0.014

ARID1A (UniProt O14497)
inactive: [1] -0.078 | crizotinib -0.098 | [2] 0.094 | [3] 0.001 | duvelisib -0.001 | gandotinib -0.029 | tozasertib -0.059 | [4] 0.077 | doramapimod 0.055 | ispinesib 0.016

ANKRD13A (UniProt Q8IZ07)
inactive: [1] 0.006 | crizotinib 0.03 | [2] -0.053 | [3] 0.088 | duvelisib 0.108 | gandotinib 0.098 | tozasertib 0.046 | [4] -0.007 | doramapimod 0.05 | ispinesib -0.022

ANXA6 (UniProt P08133)
inactive: [1] 0.07 | crizotinib -0.007 | [2] 0.13 | [3] -0.007 | duvelisib 0.037 | gandotinib 0.114 | tozasertib 0.024 | [4] -0.008 | doramapimod 0.015 | ispinesib -0.026

APEH (UniProt P13798)
inactive: [1] 0.004 | crizotinib 0.051 | [2] 0.036 | [3] -0.031 | duvelisib 0.023 | gandotinib 0.013 | tozasertib -0.033 | [4] -0.048 | doramapimod -0.011 | ispinesib 0.005

ARF3 (UniProt P61204)
inactive: [1] -0.022 | crizotinib 0.037 | [2] 0.055 | [3] -0.054 | duvelisib 0.032 | gandotinib -0.135 | tozasertib -0.031 | [4] -0.015 | doramapimod -0.013 | ispinesib 0.063

ANAPC7 (UniProt Q9UJX3)
inactive: [1] 0.002 | crizotinib -0.017 | [2] 0.024 | [3] -0.034 | duvelisib -0.038 | gandotinib -0.026 | tozasertib 0.037 | [4] 0.028 | doramapimod 0.01 | ispinesib 0.008

ANAPC5 (UniProt Q9UJX4)
inactive: [1] -0.017 | crizotinib 0.006 | [2] -0.037 | [3] 0.095 | duvelisib -0.018 | gandotinib -0.038 | tozasertib 0.059 | [4] 0.016 | doramapimod 0.058 | ispinesib -0.01

APOBR (UniProt Q0VD83)
inactive: [1] 0.028 | crizotinib 0.081 | [2] 0.055 | [3] 0.02 | duvelisib 0.047 | gandotinib -0.008 | tozasertib -0.025 | [4] -0.055 | doramapimod 0 | ispinesib 0.02
